Results from patent US20250129169A1 (Stanford University, published 2025).

Chains of the proteins cited; added tags and fusions are not shown. Lines headed by an entry give the natural chain unless they say otherwise; changes in a name come on top.
UniProt P31785: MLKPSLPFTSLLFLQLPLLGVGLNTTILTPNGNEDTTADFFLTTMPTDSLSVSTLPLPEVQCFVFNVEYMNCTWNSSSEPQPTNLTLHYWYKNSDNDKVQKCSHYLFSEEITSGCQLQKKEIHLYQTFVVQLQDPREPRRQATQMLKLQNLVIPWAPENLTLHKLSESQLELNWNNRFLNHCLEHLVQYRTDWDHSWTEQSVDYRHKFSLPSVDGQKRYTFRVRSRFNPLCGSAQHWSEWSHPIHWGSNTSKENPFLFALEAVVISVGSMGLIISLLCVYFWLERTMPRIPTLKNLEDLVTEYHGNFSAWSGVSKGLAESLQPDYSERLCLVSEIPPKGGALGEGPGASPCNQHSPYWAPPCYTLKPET

Biological target: hγc extracellular domain (a.a. 55-254) (human) (UniProt P31785)
Assay: co-crystal structure of the complex, 2.6 Å

B1: γc-VHH6 (VHH)
VHH: QVQLQESGGGSVQAGGSLRLSCAASGYTYRDYYMGWFRQAPGREREGVASIYTRGSREGSTRYSSSVEGRFTITLDTAKNTLYLQMNSLKPEDTAMYYCAADDRTWLPRVQLGGPRENEYNYWGQGTQVTVSS
notes: also called γC nanobody clone 6
  binding: binds

Results are given in words; binding and its absence hold for the method and conditions named. Binding can be weak; no strength is given.
